The source of these data is ChEMBL document CHEMBL4837237, “Broomeanamides: Cyclic Octapeptides from an Isolate of the Fungicolous Ascomycete Sphaerostilbella broomeana from India” (J Nat Prod, 2021).

In this assay the test system is Candida albicans. Description: Antifungal activity against Candida albicans ATCC 10231 assessed as fungal growth inhibition incubated for 48 hrs by alamarBlue dye based assay. Type of assay: functional. Summed up: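 Broth MIC, modified CLSI method. Overnight cultures diluted to OD600 0.8 in PBS, then 1000-fold in MOPS-buffered RPMI-1640. Exposed to serial dilutions from 0.25 to 128 μM. Growth read by adding 10% alamarBlue. S. aureus ATCC 43300: 24 h at 37 °C. C. albicans ATCC 10231: 48 h at 23 °C. C. neoformans H99: 48 h at 23 and at 37 °C. Controls: chlortetracycline + streptomycin (bacterium), amphotericin B (fungi).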
In general terms: Alamar Blue is a resazurin reagent that responds to reducing activity.

≈ marks a conversion by molar mass, not a printed value.

As to `C[C@@H]1[C@H](O)[C@@H](C)/C=C/C=C/C=C/C=C/C=C/C=C/C=C/[C@H](O[C@@H]2O[C@H](C)[C@@H](O)[C@H](N)[C@@H]2O)C[C@@H]2O[C@](O)(C[C@@H](O)C[C@@H](O)[C@H](O)CC[C@@H](O)C[C@@H](O)CC(=O)O[C@H]1C)C[C@H](O)[C@H]2C(=O)O` [AMPHOTERICIN B], the MIC came to 1.7 µg/mL (≈ 1.84 µM).

The term MIC denotes the smallest concentration in the dilution series that meets the test's criterion for growth inhibition.
